# Results: US4512980A, “Peptide, process for preparation thereof and use thereof” (priority 1979, dated 1985)
# At least one peptide structure holds a part that was inferred or is arguable (an end, a ring closure or a residue).
# Test system: E. coli 22
# Assay: Protective efficacy in experimental infection in mice
# Format: in vivo
# Conditions: dose 1 mg/kg intraperitoneally 24 hours before challenge, male ICR mice, E. coli 22 i.p., survival after four days
# Method: In determining the protective efficacy against experimental infections in mice, the test compound was dissolved in and diluted with sterile saline to provide prescribed concentrations of drug.
# Male ICR-strain mice, aged 4 weeks were used in groups of ten mice. E. coli 22 was cultivated overnight at 37° C. on trypticase soy agar and then were suspended in a sterile saline to obtain microbial cell concentration of 9.0×10^7 CFU/ml. Mice were inoculated intraperitoneally with 0.2 ml of the suspension. Each of the test drugs was given intraperitoneally in various doses to a group of ten mice 24 hours before challenge.
# Survival percent were found from the number of the surviving animals after four days of injection.
compound,measurement,value
"C[C@H](NC(=O)[C@@H](C)O)C(=O)N[C@H](CCC(=O)O)C(=O)N[C@@H](CCC[C@@H](N)C(=O)O)C(=O)NCC(=O)O [Example 15 (Step 2), D-Lac-L-Ala-α-D-Glu(γ-OH)-(L)-mesoDAP-(L)-GlyOH]",Survival (%),100%
